# From PMC7862700
# Amino acid sequences for entries named in this document (tags omitted). A change or cut given only in a name is not applied to a line headed by its entry.
# UniProt P32519: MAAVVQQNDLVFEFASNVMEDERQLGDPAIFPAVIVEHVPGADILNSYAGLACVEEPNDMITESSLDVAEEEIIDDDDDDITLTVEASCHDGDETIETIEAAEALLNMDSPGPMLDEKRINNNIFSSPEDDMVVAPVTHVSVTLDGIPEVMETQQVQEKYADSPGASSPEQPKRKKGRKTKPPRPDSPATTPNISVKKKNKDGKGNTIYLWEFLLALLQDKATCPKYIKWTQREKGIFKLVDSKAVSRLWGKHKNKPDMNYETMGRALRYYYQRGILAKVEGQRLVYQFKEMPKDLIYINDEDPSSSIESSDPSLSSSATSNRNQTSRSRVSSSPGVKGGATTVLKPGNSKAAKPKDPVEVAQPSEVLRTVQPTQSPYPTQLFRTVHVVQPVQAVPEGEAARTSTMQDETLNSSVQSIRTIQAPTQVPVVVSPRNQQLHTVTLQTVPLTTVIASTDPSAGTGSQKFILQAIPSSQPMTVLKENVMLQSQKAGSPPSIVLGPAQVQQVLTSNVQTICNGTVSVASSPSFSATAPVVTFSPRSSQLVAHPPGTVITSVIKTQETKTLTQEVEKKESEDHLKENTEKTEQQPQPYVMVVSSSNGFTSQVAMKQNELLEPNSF
# Only a part is listed here, and it is no random draw. For part of these data: At the low end of the ranking the order means little. This is one part of the list. For part of these data: Construct or isoform of the protein are uncertain.
# Tests used:
# Test in all cases: DAPPL (digital affinity profiling via proximity ligation, sequencing)
# Conditions in all cases: 10 mM Tris-HCl pH 7.5, 50 mM NaCl, 1 mM DTT, 4% glycerol, room temperature, 30 min; GST-TFs on glutathione beads, 16-mer random dsDNA library, 0.1% …; high values mean tight binding; double strand, one strand shown; scale: fold enrichment (6-mer frequency, TF over GST control)
# ELF1 = ELF1 (UniProt P32519)
# ELK4 = target: T1, ELK4 (UniProt P28324-2)
# T1 sequence: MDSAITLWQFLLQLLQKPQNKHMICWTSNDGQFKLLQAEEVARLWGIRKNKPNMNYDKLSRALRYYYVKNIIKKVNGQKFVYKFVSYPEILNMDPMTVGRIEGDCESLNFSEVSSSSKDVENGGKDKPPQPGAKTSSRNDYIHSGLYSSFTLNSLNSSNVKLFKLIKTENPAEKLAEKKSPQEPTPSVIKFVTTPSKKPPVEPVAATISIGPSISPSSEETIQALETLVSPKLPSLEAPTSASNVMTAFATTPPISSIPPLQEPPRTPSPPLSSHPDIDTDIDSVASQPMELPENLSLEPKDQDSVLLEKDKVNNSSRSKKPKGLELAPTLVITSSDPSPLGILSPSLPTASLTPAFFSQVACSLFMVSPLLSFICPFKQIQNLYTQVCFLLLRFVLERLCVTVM
# ETV4 = target: T2, ETV4 (UniProt P43268)
# T2 sequence: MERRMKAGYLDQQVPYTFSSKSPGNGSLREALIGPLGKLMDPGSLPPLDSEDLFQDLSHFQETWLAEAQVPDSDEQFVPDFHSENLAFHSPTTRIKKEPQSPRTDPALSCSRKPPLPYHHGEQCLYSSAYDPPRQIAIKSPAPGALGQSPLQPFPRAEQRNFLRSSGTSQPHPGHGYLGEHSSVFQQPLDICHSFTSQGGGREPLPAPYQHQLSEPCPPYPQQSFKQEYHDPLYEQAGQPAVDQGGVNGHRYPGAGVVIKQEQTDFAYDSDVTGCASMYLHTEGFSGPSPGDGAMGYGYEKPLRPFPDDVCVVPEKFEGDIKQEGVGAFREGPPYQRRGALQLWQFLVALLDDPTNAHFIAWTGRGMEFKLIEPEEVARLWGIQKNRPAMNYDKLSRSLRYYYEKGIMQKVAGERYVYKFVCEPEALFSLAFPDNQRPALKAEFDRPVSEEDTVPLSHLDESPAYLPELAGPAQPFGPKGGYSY
# ERF = target: T3, ERF (UniProt P50548)
# T3 sequence: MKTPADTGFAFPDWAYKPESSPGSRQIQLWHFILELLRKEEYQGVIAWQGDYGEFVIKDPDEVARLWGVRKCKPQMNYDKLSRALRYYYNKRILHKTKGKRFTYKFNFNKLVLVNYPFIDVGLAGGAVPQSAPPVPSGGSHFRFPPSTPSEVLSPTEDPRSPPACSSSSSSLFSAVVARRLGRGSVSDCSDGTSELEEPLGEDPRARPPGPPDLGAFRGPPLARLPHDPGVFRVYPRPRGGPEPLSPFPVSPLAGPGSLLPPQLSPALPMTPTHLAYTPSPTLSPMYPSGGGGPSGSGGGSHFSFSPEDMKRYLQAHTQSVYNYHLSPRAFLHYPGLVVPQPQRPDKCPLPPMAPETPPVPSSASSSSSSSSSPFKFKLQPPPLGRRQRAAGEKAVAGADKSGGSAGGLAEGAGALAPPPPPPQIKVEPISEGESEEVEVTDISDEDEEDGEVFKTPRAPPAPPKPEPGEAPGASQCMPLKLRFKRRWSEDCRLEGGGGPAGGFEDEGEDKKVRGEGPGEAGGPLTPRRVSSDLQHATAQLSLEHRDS
# ERG = target: T4, ERG (UniProt P11308)
# T4 sequence: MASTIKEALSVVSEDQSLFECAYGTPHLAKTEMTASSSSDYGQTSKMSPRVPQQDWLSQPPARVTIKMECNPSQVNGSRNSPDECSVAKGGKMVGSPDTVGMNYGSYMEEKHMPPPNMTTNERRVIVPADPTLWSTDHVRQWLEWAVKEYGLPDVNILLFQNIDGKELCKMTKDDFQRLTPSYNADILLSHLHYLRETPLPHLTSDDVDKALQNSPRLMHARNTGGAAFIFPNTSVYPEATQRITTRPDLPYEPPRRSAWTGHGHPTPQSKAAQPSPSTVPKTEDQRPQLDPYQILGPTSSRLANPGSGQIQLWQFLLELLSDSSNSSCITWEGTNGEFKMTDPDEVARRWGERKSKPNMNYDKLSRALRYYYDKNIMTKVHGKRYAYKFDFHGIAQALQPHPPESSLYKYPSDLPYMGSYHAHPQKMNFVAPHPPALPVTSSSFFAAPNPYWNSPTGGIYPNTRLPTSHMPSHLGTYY
sequence,measurement,setting,value
AAGAAG,binding signal,ELF1,1.05
same,binding signal,ELK4,1.18
same,binding signal,ETV4,1.1
same,binding signal,ERF,1.01
TTCACA,binding signal,ELF1,1.16
same,binding signal,ELK4,1.28
same,binding signal,ETV4,1.21
same,binding signal,ERF,1.26
CGTATC,binding signal,ELF1,1.23
same,binding signal,ELK4,1.16
same,binding signal,ETV4,1.17
same,binding signal,ERF,1.15
GCCGGA,binding signal,ELF1,0.952
same,binding signal,ELK4,0.939
same,binding signal,ETV4,1.08
same,binding signal,ERF,0.905
ACAGCC,binding signal,ELF1,1.11
same,binding signal,ELK4,1.04
same,binding signal,ETV4,1.02
same,binding signal,ERF,1.18
CAGCAT,binding signal,ELF1,0.985
same,binding signal,ELK4,0.993
same,binding signal,ETV4,1.03
same,binding signal,ERF,0.911
TATGAT,binding signal,ELF1,1.24
same,binding signal,ELK4,1.25
same,binding signal,ETV4,1.25
AGATGA,binding signal,ELF1,1.14
same,binding signal,ELK4,0.994
same,binding signal,ETV4,1.21
same,binding signal,ERF,1.18
AGTGCC,binding signal,ELF1,0.995
same,binding signal,ELK4,0.971
same,binding signal,ETV4,1.06
same,binding signal,ERF,0.928
GTACAC,binding signal,ELF1,1.17
same,binding signal,ELK4,1.23
same,binding signal,ETV4,1.2
TCAGTT,binding signal,ELF1,0.995
same,binding signal,ELK4,1.08
same,binding signal,ETV4,0.996
same,binding signal,ERF,0.97
AGGAAC,binding signal,ELF1,0.977
same,binding signal,ELK4,0.907
same,binding signal,ETV4,0.988
same,binding signal,ERF,0.959
ACGTCA,binding signal,ELF1,0.884
same,binding signal,ELK4,0.946
same,binding signal,ETV4,0.96
same,binding signal,ERF,0.88
GGATAC,binding signal,ELF1,0.962
same,binding signal,ELK4,0.889
same,binding signal,ETV4,1.01
same,binding signal,ERF,0.909
ACCCGG,binding signal,ELF1,1.75
same,binding signal,ELK4,1.52
same,binding signal,ETV4,1.54
TCCTTA,binding signal,ELF1,1.66
same,binding signal,ELK4,1.41
same,binding signal,ETV4,1.42
CATTTG,binding signal,ELF1,1.24
same,binding signal,ELK4,1.26
same,binding signal,ETV4,1.31
GTCGAC,binding signal,ELF1,0.962
same,binding signal,ELK4,0.942
same,binding signal,ETV4,0.973
TATTGA,binding signal,ELF1,1.18
same,binding signal,ELK4,1.17
same,binding signal,ETV4,1.1
AACGGA,binding signal,ELF1,0.984
same,binding signal,ELK4,0.95
same,binding signal,ETV4,1.06
same,binding signal,ERF,0.995
CACACC,binding signal,ELF1,1.02
same,binding signal,ELK4,0.974
same,binding signal,ETV4,1.04
GCTTTT,binding signal,ELF1,1.09
same,binding signal,ELK4,1.17
same,binding signal,ETV4,1.1
CATGTT,binding signal,ELF1,1.06
same,binding signal,ELK4,1.1
same,binding signal,ETV4,1.06
AGTATG,binding signal,ELF1,1.04
same,binding signal,ELK4,0.99
same,binding signal,ETV4,0.999
same,binding signal,ERF,1.02
ACACTA,binding signal,ELF1,1.19
same,binding signal,ELK4,1.16
same,binding signal,ETV4,1.13
TCCCGG,binding signal,ELF1,2.12
same,binding signal,ELK4,1.91
same,binding signal,ETV4,2.05
TTATTA,binding signal,ELF1,1.1
same,binding signal,ELK4,1.03
same,binding signal,ETV4,1.12
same,binding signal,ERF,0.948
TTAGGC,binding signal,ELF1,0.993
same,binding signal,ELK4,0.963
same,binding signal,ETV4,0.978
TAAGTT,binding signal,ELF1,1.3
same,binding signal,ELK4,1.22
same,binding signal,ETV4,1.29
CAACCT,binding signal,ELF1,1.2
same,binding signal,ELK4,1.15
same,binding signal,ETV4,1.26
ACACTC,binding signal,ELF1,1.12
same,binding signal,ELK4,1.19
same,binding signal,ETV4,1.14
same,binding signal,ERF,1.06
AACTTG,binding signal,ELF1,1.21
same,binding signal,ELK4,1.11
same,binding signal,ETV4,1.12
GCGTAT,binding signal,ELF1,0.97
same,binding signal,ELK4,0.987
same,binding signal,ETV4,1.02
same,binding signal,ERF,0.922
ATCGTT,binding signal,ELF1,0.971
same,binding signal,ELK4,1.12
same,binding signal,ETV4,1.12
CGGAAC,binding signal,ELF1,1.04
same,binding signal,ELK4,0.964
same,binding signal,ETV4,1.15
same,binding signal,ERF,0.914
GTACCT,binding signal,ELF1,1.22
same,binding signal,ELK4,1.25
same,binding signal,ETV4,1.24
CGGAAA,binding signal,ELF1,1.87
same,binding signal,ELK4,1.55
same,binding signal,ETV4,2.07
same,binding signal,ERF,1.77
ATGTTG,binding signal,ETV4,1.17
CCTTAG,binding signal,ELF1,1.27
same,binding signal,ELK4,1.34
same,binding signal,ETV4,1.21
CTGTCT,binding signal,ETV4,1.45
ATTCAC,binding signal,ETV4,1.28
ACCTTA,binding signal,ETV4,1.21
AATATG,binding signal,ETV4,1.12
ATAACA,binding signal,ETV4,1.25
ACGACT,binding signal,ELF1,1.19
same,binding signal,ELK4,1.39
same,binding signal,ETV4,1.26
ACTATC,binding signal,ELF1,1.12
same,binding signal,ELK4,1.2
same,binding signal,ETV4,1.13
ATCGAC,binding signal,ETV4,1.1
AAGACT,binding signal,ETV4,1.11
GCACTC,binding signal,ELF1,1.33
same,binding signal,ELK4,1.33
same,binding signal,ETV4,1.34
CCTGAC,binding signal,ETV4,1.58
CTTGTA,binding signal,ETV4,1.4
CCTCCA,binding signal,ELF1,1.37
same,binding signal,ELK4,1.47
same,binding signal,ETV4,1.39
AGTATT,binding signal,ETV4,1.15
AAACGA,binding signal,ELF1,1.08
same,binding signal,ELK4,0.941
same,binding signal,ETV4,1.03
TAATCC,binding signal,ELF1,1.15
same,binding signal,ELK4,1.23
same,binding signal,ETV4,1.22
ACGCTT,binding signal,ETV4,1.38
ACTACG,binding signal,ETV4,1.27
ATACGA,binding signal,ELF1,1.14
same,binding signal,ELK4,1.08
same,binding signal,ETV4,1.17
CCCTCA,binding signal,ETV4,1.25
CCTCCT,binding signal,ETV4,1.48
GTGCTA,binding signal,ETV4,1.07
TCGCCG,binding signal,ETV4,1.13
AACCAC,binding signal,ELF1,1.25
same,binding signal,ELK4,1.26
same,binding signal,ETV4,1.17
CCACCC,binding signal,ETV4,1.24
ACAACT,binding signal,ETV4,1.4
CTGACC,binding signal,ETV4,1.43
ATAAGG,binding signal,ELF1,0.942
same,binding signal,ELK4,0.923
same,binding signal,ETV4,1.03
ATCGCA,binding signal,ELF1,1.08
same,binding signal,ELK4,1.06
same,binding signal,ETV4,1
CCACTG,binding signal,ETV4,1.27
ACACAT,binding signal,ETV4,1.31
AATTCT,binding signal,ELF1,1.32
same,binding signal,ELK4,1.29
same,binding signal,ETV4,1.27
TGCACA,binding signal,ETV4,1.1
GAACAA,binding signal,ELF1,1.22
same,binding signal,ELK4,1.16
same,binding signal,ETV4,1.17
CTTCGT,binding signal,ELF1,1.3
same,binding signal,ELK4,1.39
same,binding signal,ETV4,1.4
TCCGTT,binding signal,ELF1,1.34
same,binding signal,ELK4,1.48
same,binding signal,ETV4,1.54
TTTTAT,binding signal,ETV4,1.3
AAAAAC,binding signal,ETV4,1.17
ATCCAT,binding signal,ERG,1.11
same,binding signal,ETV4,1.12
TTGCAG,binding signal,ERG,1.15
same,binding signal,ETV4,1.02
ACAATG,binding signal,ETV4,1.14
TAGAAG,binding signal,ERG,1.19
same,binding signal,ETV4,1.19
CACGTA,binding signal,ERG,1.1
same,binding signal,ETV4,1.23
GTCCCC,binding signal,ERG,1.23
same,binding signal,ETV4,1.15
CCCTGC,binding signal,ETV4,1.1
AAAACC,binding signal,ERG,1.13
same,binding signal,ETV4,1.15
CCCCAC,binding signal,ERG,1.2
same,binding signal,ETV4,1.27
GGTGGT,binding signal,ERG,1.12
same,binding signal,ETV4,0.99
GCCTCT,binding signal,ERG,1.35
same,binding signal,ETV4,1.42
TACTGT,binding signal,ETV4,1.15
CTGAAG,binding signal,ERG,1.08
same,binding signal,ETV4,1.13
CTACCC,binding signal,ERG,1.36
same,binding signal,ETV4,1.31
AGGTCT,binding signal,ERG,1.15
same,binding signal,ETV4,1.19
CTTAAA,binding signal,ETV4,1.18
TGTGCC,binding signal,ERG,1.17
same,binding signal,ETV4,1.13
TGCTTG,binding signal,ERG,1.15
same,binding signal,ETV4,1.26
AATTCG,binding signal,ERG,1.3
same,binding signal,ETV4,1.18
ACGCCT,binding signal,ERG,1.2
same,binding signal,ETV4,1.27
AGCTTA,binding signal,ETV4,1.21
AAGTTA,binding signal,ETV4,1.21
TGGACA,binding signal,ERG,1.05
same,binding signal,ETV4,1.05

# Pulled one by one from the entries so far:
sequence,measurement,setting,value
ACACTA,binding signal,ETV4,1.13
CAGCAT,binding signal,ELK4,0.993
AAGACT,binding signal,ETV4,1.11
AGCTTA,binding signal,ETV4,1.21
ACGACT,binding signal,ETV4,1.26
ATGTTG,binding signal,ETV4,1.17
TATGAT,binding signal,ELF1,1.24

# Rewritten tab-delimited: entries from further up
sequence	measurement	setting	value
AGATGA	binding signal	ETV4	1.21
same	binding signal	ERF	1.18
AGTGCC	binding signal	ELF1	0.995
same	binding signal	ELK4	0.971
